PubChem BioAssay AID1259308, NCATS | 2017

Assay: 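Genes whose loss raises luciferase production in HEK293 cells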 (primary screen)
Cells: human HEK293 embryonic kidney cells stably expressing firefly luciferase (HEK-CMV-Luc2-Hygro)
Reagent: single siRNA against human genes, 0.8 pmol siRNA per well
Time to read-out: 72 h
Measurement: 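Luciferase light (ONE-Glo) measured on one replicate plate set and viability (CellTiter-Glo) on the other, scaled to a negative control siRNA, with robust z-scores and luciferase per cell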
Reading the numbers: total luciferase, z-score and total luciferase, % of control: higher = more reporter protein produced; luciferase per cell, z-score: higher = more reporter output per viable cell; viable cells, % of control: higher = more viable cells
Rule for the call: 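Active when the median/MAD z-score for overall luciferase is greater than 3; a gene was taken forward for validation with new siRNAs if at least two of its three siRNAs passed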
Calls: active = raised luciferase; inactive = no rise
Shown is an unselected part of about 59,000 reagents. Over the whole deposit, about 1,510 (2.6%) got an active call. 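Calls use total luciferase alone and ignore viability, so some active siRNAs may act by altering cell number.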 The numbers tell different reagents against one gene apart.

| gene knocked down | siRNA no. | total luciferase, z-score | total luciferase, % of control | luciferase per cell, z-score | viable cells, % of control | outcome |
| --- | --- | --- | --- | --- | --- | --- |
| FBXL9P | 1 | -0.226 | 77.4 | 0.0792 | 84.7 | inactive |
| FBXL9P | 2 | 1.74 | 117 | 1.79 | 81.4 | inactive |
| FBXL9P | 3 | 0.206 | 86 | -0.532 | 111 | inactive |
| PROSER2 | 1 | -1.29 | 56.2 | -1.03 | 82.4 | inactive |
| PROSER2 | 2 | 1.19 | 106 | 0.485 | 104 | inactive |
| PROSER2 | 3 | 0.165 | 85.2 | -0.144 | 98.9 | inactive |
| YPEL4 | 1 | -1.6 | 50.1 | -0.658 | 66.5 | inactive |
| YPEL4 | 2 | -0.171 | 78.5 | -0.227 | 93.1 | inactive |
| YPEL4 | 3 | 1.53 | 112 | 0.774 | 102 | inactive |
| CLTA | 1 | -1.28 | 56.4 | -0.17 | 65.9 | inactive |
| CLTA | 2 | 0.23 | 86.5 | 0.0142 | 96.2 | inactive |
| CLTA | 3 | -0.293 | 76.1 | -0.761 | 104 | inactive |
| PRPF8 | 1 | 2.27 | 127 | 2.56 | 72.4 | inactive |
| PRPF8 | 2 | 1.47 | 111 | 2.51 | 64.1 | inactive |
| PRPF8 | 3 | 1.96 | 121 | 3.06 | 60.4 | inactive |
| LMTK1 | 1 | 1.21 | 106 | 1.17 | 86.9 | inactive |
| LMTK1 | 2 | -0.787 | 66.2 | -1.23 | 102 | inactive |
| LMTK1 | 3 | 0.459 | 91 | 1.32 | 71.8 | inactive |
| PDILT | 1 | 0.539 | 92.6 | 0.457 | 91.7 | inactive |
| PDILT | 2 | -0.41 | 73.7 | -0.389 | 91.3 | inactive |
| PDILT | 3 | -0.292 | 76.1 | -0.929 | 109 | inactive |
| POFUT3 | 1 | 1.98 | 121 | 1.91 | 81.8 | inactive |
| POFUT3 | 2 | -1.24 | 57.3 | -0.95 | 82.2 | inactive |
| POFUT3 | 3 | 0.468 | 91.2 | 0.889 | 80.6 | inactive |
| GAB3 | 1 | 0.893 | 99.6 | 0.142 | 107 | inactive |
| GAB3 | 2 | 1.15 | 105 | 0.994 | 90 | inactive |
| GAB3 | 3 | 1.14 | 105 | 1.21 | 85 | inactive |

Laid out differently: entries from further up
gene knocked down,siRNA no.,"total luciferase, z-score","total luciferase, % of control","luciferase per cell, z-score","viable cells, % of control",outcome
CLTA,1,-1.28,56.4,-0.17,65.9,inactive
CLTA,2,0.23,86.5,0.0142,96.2,inactive
CLTA,3,-0.293,76.1,-0.761,104,inactive
PRPF8,1,2.27,127,2.56,72.4,inactive
PRPF8,2,1.47,111,2.51,64.1,inactive
PRPF8,3,1.96,121,3.06,60.4,inactive
LMTK1,1,1.21,106,1.17,86.9,inactive
LMTK1,2,-0.787,66.2,-1.23,102,inactive
LMTK1,3,0.459,91,1.32,71.8,inactive
PDILT,1,0.539,92.6,0.457,91.7,inactive

More entries follow.
| gene knocked down | siRNA no. | total luciferase, z-score | total luciferase, % of control | luciferase per cell, z-score | viable cells, % of control | outcome |
| --- | --- | --- | --- | --- | --- | --- |
| HLA-DOB | 1 | 0.112 | 84.1 | -0.184 | 98.7 | inactive |
| HLA-DOB | 2 | 0.427 | 90.4 | 0.471 | 89.2 | inactive |
| HLA-DOB | 3 | -0.0197 | 81.5 | -0.241 | 97 | inactive |
| NOL4 | 1 | 0.0583 | 83 | 0.305 | 85.6 | inactive |
| NOL4 | 2 | -1.21 | 57.8 | -0.129 | 66.8 | inactive |
| NOL4 | 3 | -0.653 | 68.9 | -0.789 | 94.8 | inactive |
| LGALS4 | 1 | -1.47 | 52.6 | -1.51 | 87.6 | inactive |
| LGALS4 | 2 | -1.14 | 59.2 | -0.479 | 75 | inactive |
| LGALS4 | 3 | -1.14 | 59.3 | -0.906 | 84.1 | inactive |
| OPALIN | 1 | -0.168 | 78.6 | -1.07 | 116 | inactive |
| OPALIN | 2 | -1.03 | 61.4 | -1 | 89.4 | inactive |
| OPALIN | 3 | 1.05 | 103 | 0.322 | 105 | inactive |
| MYO1D | 1 | 1.23 | 106 | 0.985 | 91.7 | inactive |
| MYO1D | 2 | 1.14 | 105 | 1.28 | 83.4 | inactive |
| MYO1D | 3 | 0.898 | 99.7 | 1.46 | 75.9 | inactive |
| CD3D | 1 | 1.81 | 118 | 1.12 | 98.1 | inactive |
| CD3D | 2 | 0.338 | 88.6 | 0.0971 | 96.5 | inactive |
| CD3D | 3 | -0.065 | 80.6 | -0.308 | 97.7 | inactive |
| CHST14 | 1 | 0.842 | 98.6 | 0.347 | 101 | inactive |
| CHST14 | 2 | 0.238 | 86.6 | -0.948 | 124 | inactive |
| CHST14 | 3 | -0.499 | 72 | -0.423 | 89.9 | inactive |
| OR51A7 | 1 | -0.419 | 73.6 | 0.239 | 77.2 | inactive |
| OR51A7 | 2 | -0.547 | 71 | -0.694 | 95.2 | inactive |
| OR51A7 | 3 | 0.186 | 85.6 | 0.276 | 88.9 | inactive |
| DRICH1 | 1 | -0.466 | 72.6 | -0.796 | 100 | inactive |
| DRICH1 | 2 | -0.297 | 76 | -0.311 | 92.1 | inactive |
| DRICH1 | 3 | -0.726 | 67.4 | -1.29 | 106 | inactive |
| LINC00938 | 1 | 3.03 | 142 | 2.35 | 85.6 | active |
| LINC00938 | 2 | -1.17 | 58.7 | -0.631 | 77.4 | inactive |
| LINC00938 | 3 | -0.189 | 78.1 | -0.745 | 106 | inactive |
| GPR183 | 1 | 0.327 | 88.4 | 0.589 | 84.6 | inactive |
| GPR183 | 2 | -1.57 | 50.7 | -1.89 | 93.1 | inactive |
| GPR183 | 3 | -0.702 | 67.9 | -1.1 | 101 | inactive |
| SMOC2 | 1 | -0.17 | 78.5 | -0.49 | 99.8 | inactive |
| SMOC2 | 2 | -1.38 | 54.4 | -0.559 | 70.4 | inactive |
| SMOC2 | 3 | -0.884 | 64.3 | -0.0197 | 72.2 | inactive |
| LINC02939 | 1 | -0.239 | 77.1 | -0.46 | 97.3 | inactive |
| LINC02939 | 2 | 3.48 | 151 | 2.58 | 85.7 | active |
| LINC02939 | 3 | 0.181 | 85.5 | 0.664 | 80.2 | inactive |
| CSTF1 | 1 | -0.429 | 73.4 | -0.623 | 96.6 | inactive |
| CSTF1 | 2 | 0.179 | 85.5 | 0.187 | 90.9 | inactive |
| CSTF1 | 3 | 0.699 | 95.8 | 0.905 | 84.3 | inactive |
| CHCHD2P8 | 1 | 0.995 | 102 | 0.903 | 89.6 | inactive |
| CHCHD2P8 | 2 | -1.97 | 42.6 | -2.15 | 83.9 | inactive |
| CHCHD2P8 | 3 | -0.0103 | 81.7 | -0.0859 | 93.4 | inactive |
| DNTT | 1 | -0.284 | 76.2 | -0.426 | 95.3 | inactive |
| DNTT | 2 | 0.0592 | 83.1 | -0.284 | 100 | inactive |
| DNTT | 3 | -0.199 | 77.9 | -0.165 | 90.9 | inactive |
